Assay results published in PubChem BioAssay (NCATS).
Shown are results outside the selection of hits, which stands elsewhere. Inconclusive results are not listed. Active and inactive are the calls of the source. Calls come from the whole dose curve; as a rule, active = well fitted curve in the direction sought with a large enough effect; inconclusive = small, poorly fitted or top-dose-only effect, or another doubt; inactive = no such curve, though single readings can be large; an effect the other way counts as inactive or inconclusive.

Tests used:
[1] = Cell Viability - LYMP1-003 - Assay at 24 hr (AID 963); conditions: LYMP1-003 lymphoblastoid cell viability; at 92.2 µM (top of the series);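 note: plate controls were DMSO only for no effect and tetraoctylammonium bromide positive control for full effect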
In short: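 Human lymphoblastoid LYMP1-003 cells (2500/well) were rested 5 hr at 37 C, then exposed to compounds in complete medium for 24 hr at 37 C. Cellular ATP was quantified by CellTiter-Glo luminescence, and AC50 values came from Hill fits of concentration-response data.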

[2] = Cell Viability - LYMP1-003 - Assay at 40 hr (AID 964); conditions: LYMP1-003 lymphoblastoid viability; at 92.2 µM (top of the series); note: % is set by controls: 0 for no effect and ±100 for the full control effect; nearly all actives have a fitted effect of over 60% in size
In short: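 Human lymphoblastoid LYMP1-003 cells, 2500/well in complete medium, rested 5 hr at 37 C, then exposed to compounds for 40 hr at 37 C. Viability read as intracellular ATP by CellTiter-Glo luminescence; AC50 from Hill fits of concentration-response data.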

[3] = Cell Viability - LYMP2-003 (AID 965); conditions: LYMP2-003 lymphoblastoid cell viability; at 92.2 µM (top of the series);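 note: cells exposed to compounds for 24 h before reading; 0% = DMSO only and full effect = 92 µM tetraoctylammonium bromide; nearly all actives have a fitted effect of over 50% in size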
In short: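 CellTiter-Glo luminescence (cellular ATP) after 24 h compound exposure at 37 C in complete medium; 2500 cells/well, 5 h settling beforehand. Concentration-response fitted to standard Hill equation for AC50. Tetraoctylammonium bromide served as positive control.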

[4] = Cell Viability - LYMP2-004 (AID 966); conditions: LYMP2-004 lymphoblastoid cell viability, qHTS; at 92.2 µM (top of the series);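 note: plate controls were DMSO only for no effect and tetraoctylammonium bromide control for full effect; nearly all actives have a fitted effect of over 65% in size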
In short: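 Human lymphoblastoid cells (2500/well) in complete medium were treated with compounds for 24 hr at 37 C, then intracellular ATP was measured by CellTiter-Glo luminescence. AC50 values came from Hill-equation fits of concentration-response data.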

[5] = Cell Viability - LYMP2-011 (AID 969); conditions: LYMP2-011 lymphoblastoid cells viability; at 92.2 µM (top of the series);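 note: 0% = DMSO only and full inhibition = 92 µM tetraoctylammonium bromide; nearly all actives have a fitted effect of over 60% in size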
In short: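 Human lymphoblastoid cells (2500/well) were plated in complete medium, preincubated 5 hr at 37 C, then exposed to compounds for 24 hr at 37 C. Intracellular ATP was read by CellTiter-Glo luminescence, and AC50 came from Hill-equation concentration-response fits.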

[6] = Cell Viability - LYMP2-013 (AID 970); conditions: LYMP2-013 lymphoblastoid cells viability; at 92.2 µM (top of the series);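 note: 0% = DMSO only and full inhibition = tetraoctylammonium bromide control; nearly all actives have a fitted effect of over 55% in size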
In short: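 Human lymphoblastoid cells, 2500/well, were preincubated 5 hr at 37 C, then treated with compounds for 24 hr at 37 C in complete medium. Intracellular ATP was read by CellTiter-Glo luminescence; AC50 from Hill-equation fits of concentration-response data.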

[7] = Cell Viability - LYMP2-017 (AID 972); conditions: LYMP2-017 lymphoblastoid cell viability; at 92.2 µM (top of the series); note: % is set by controls: 0 for no effect and ±100 for the full control effect; nearly all actives have a fitted effect of over 55% in size
In short: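 Human lymphoblastoid cells (2500/well) were seeded in complete medium, held 5 hr at 37 C, then exposed to compounds for 24 hr at 37 C. Intracellular ATP was read by CellTiter-Glo luminescence after 30 min at room temperature, with AC50 values from Hill-equation fits.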

[8] = Cell Viability - LYMP2-019 (AID 973); conditions: LYMP2-019 lymphoblastoid cell line viability; at 92.2 µM (top of the series);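 note: 0% = DMSO alone and full effect = 92 µM tetraoctylammonium bromide; nearly all actives have a fitted effect of over 55% in size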
[9] = Cell Viability - LYMP2-021 (AID 974); conditions: LYMP2-021 lymphoblastoid cells viability; at 92.2 µM (top of the series);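 note: compound exposure lasts 24 hours at 37 °C; % is set by controls: 0 for no effect and ±100 for the full control effect; nearly all actives have a fitted effect of over 55% in size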
In short: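 Human lymphoblastoid cells (2500/well) were preincubated 5 hr at 37 C, then exposed to compounds for 24 hr at 37 C in complete medium. Intracellular ATP was read by CellTiter-Glo luminescence; AC50 came from Hill-equation fits of concentration-response data.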

[10] = Cell Viability - LYMP2-023 (AID 975); conditions: LYMP2-023 lymphoblastoid cell viability; at 92.2 µM (top of the series)
In short: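 Human lymphoblastoid cells (2500/well) were preincubated 5 hr at 37 C, then exposed to compounds for 24 hr at 37 C in complete medium. Cellular ATP was read by CellTiter-Glo luminescence, and AC50 came from Hill-equation fits.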

[11] = Cell Viability - LYMP2-025 (AID 976); conditions: LYMP2-025 lymphoblastoid cell viability; at 92.2 µM (top of the series);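 note: plate controls were DMSO only for no effect and tetraoctylammonium bromide control for full effect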
In short: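 Human lymphoblastoid LYMP2-025 cells (2500/well) were pre-incubated 5 hr at 37 C, then treated with compounds for 24 hr at 37 C in complete medium. Viability was read as intracellular ATP by CellTiter-Glo luminescence; AC50 from Hill fits.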

[12] = Cell Viability - LYMP2-002 (AID 977); conditions: LYMP2-002 lymphoblastoid cell viability, qHTS; at 92.2 µM (top of the series);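 note: plate controls were DMSO only for no effect and 92 µM tetraoctylammonium bromide for full effect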
In short: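 Luminescent ATP readout (CellTiter-Glo, 30 min room temperature) after 24 h compound exposure at 37 C of a human lymphoblastoid line, 2500 cells/well. AC50 values derived by standard Hill fitting of qHTS concentration-response data.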

[13] = Cell Viability - LYMP2-006 (AID 978); conditions: LYMP2-006 lymphoblastoid cell viability, qHTS; at 92.2 µM (top of the series); note: % is set by controls: 0 for no effect and ±100 for the full control effect; nearly all actives have a fitted effect of over 60% in size
In short: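 qHTS, 1536-well; 2500 cells/well, 5 hr 37 C; cpd 24 hr 37 C; CellTiter-Glo 30 min RT; luminescence. Tetraoctylammonium bromide pos. ctrl. AC50 via Hill eqn.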

[14] = Cell Viability - LYMP2-007 (AID 979); conditions: LYMP2-007 lymphoblastoid cell viability; at 92.2 µM (top of the series);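 note: cells exposed to compound for 24 h before reading; 0% = DMSO only and the negative end = 92 µM tetraoctylammonium bromide; nearly all actives have a fitted effect of over 60% in size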
[15] = Cell Viability - LYMP2-008 (AID 980); conditions: LYMP2-008 lymphoblastoid cell viability, qHTS; at 92.2 µM (top of the series)
In short: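 Human lymphoblastoid cells (2500/well) were plated, held 5 hr at 37 C, then exposed to compounds for 24 hr at 37 C in complete medium. Intracellular ATP was read by CellTiter-Glo luminescence; AC50 from Hill-fitted concentration-response.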

[16] = Cell Viability - LYMP2-010 (AID 981); conditions: LYMP2-010 lymphoblastoid cell viability, qHTS; at 92.2 µM (top of the series)
In short: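 Human lymphoblastoid LYMP2-010 cells (2500/well) were preincubated 5 hr at 37 C, then exposed to compounds for 24 hr at 37 C in complete medium. Intracellular ATP was measured by CellTiter-Glo luminescence after 30 min at room temperature; AC50 from Hill-fitted concentration-response.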

[17] = Cell Viability - LYMP2-012 (AID 982); conditions: LYMP2-012 lymphoblastoid cell viability qHTS; at 92.2 µM (top of the series)
[18] = Cell Viability - LYMP2-014 (AID 983); conditions: LYMP2-014 lymphoblastoid cells, viability qHTS; at 92.2 µM (top of the series);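 note: plate controls were DMSO only for no effect and 92 µM tetraoctylammonium bromide for full effect; nearly all actives have a fitted effect of over 50% in size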
[19] = Cell Viability - LYMP2-016 (AID 984); conditions: LYMP2-016 lymphoblastoid cell viability, qHTS; at 92.2 µM (top of the series)
In short: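 qHTS, 1536-well: 2500 LYMP2-016 cells/well, 5 hr 37 C, compound added, 24 hr 37 C, CellTiter-Glo 30 min RT, luminescence. Tetraoctylammonium bromide positive control. AC50 via Hill fit.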

[20] = Cell Viability - LYMP2-018 (AID 985); conditions: LYMP2-018 lymphoblastoid cells, viability (qHTS); at 92.2 µM (top of the series);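 note: compound exposure lasted 24 hr at 37 °C; plate controls were DMSO only for no effect and tetraoctylammonium bromide at 92 µM for full effect; nearly all actives have a fitted effect of over 50% in size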
In short: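 Human lymphoblastoid cells (2500/well) were pre-incubated 5 hr at 37 C, then exposed to compounds for 24 hr at 37 C in complete medium. Viability was read as intracellular ATP by CellTiter-Glo luminescence; AC50 values came from Hill-equation fits.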

Oc1c(Cl)cc(Cl)cc1Cl
inactive: viability change, negative = cytotoxic [1] 0.147% | activity change, negative = cytotoxic [2] -3.68% | activity change, negative = cytotoxicity [3] -1.88% | activity change, negative = cytotoxicity [4] -14.2% | viability change, negative = cytotoxic [5] -8.48% | activity change, negative = cytotoxic [6] -10.4% | activity change, negative = cytotoxicity [7] 0.829% | activity change, negative = cytotoxicity [8] -3.3% | activity change, negative = cytotoxicity [9] -3.67% | activity change, negative = cytotoxicity [10] -1.59% | activity change, negative = cytotoxicity [11] -16.6% | activity change, negative = cytotoxic [12] -17.2% | activity change, negative = cytotoxicity [13] -1.44% | activity change, negative = cytotoxicity [14] -11.9% | activity change, negative = cytotoxicity [15] -1.08% | activity, negative = cytotoxicity [16] -1.2% | activity change, negative = cytotoxicity [17] -0.908% | activity change, negative = cytotoxicity [18] 0.0567% | activity change, negative = cytotoxicity [19] -6.31% | activity change, negative = cytotoxicity [20] -1.26%

Cc1ccc2ccccc2c1C
inactive: viability change, negative = cytotoxic [1] -3.75% | activity change, negative = cytotoxic [2] 6.04% | activity change, negative = cytotoxicity [4] 7.77% | viability change, negative = cytotoxic [5] 1.71% | activity change, negative = cytotoxic [6] 1.29% | activity change, negative = cytotoxicity [7] -1.21% | activity change, negative = cytotoxicity [8] -5.12% | activity change, negative = cytotoxicity [9] -4.63% | activity change, negative = cytotoxicity [10] -2.59% | activity change, negative = cytotoxicity [11] -9.71% | activity change, negative = cytotoxic [12] -2.05% | activity change, negative = cytotoxicity [13] 3.83% | activity change, negative = cytotoxicity [14] -0.889% | activity change, negative = cytotoxicity [15] -3.65% | activity, negative = cytotoxicity [16] -9.49% | activity change, negative = cytotoxicity [17] 1.9% | activity change, negative = cytotoxicity [18] -8.37% | activity change, negative = cytotoxicity [19] -4.03% | activity change, negative = cytotoxicity [20] -17.7%

Cc1ccc(O)cc1C
inactive: viability change, negative = cytotoxic [1] -0.779% | activity change, negative = cytotoxic [2] -4.59% | activity change, negative = cytotoxicity [3] 6.98% | activity change, negative = cytotoxicity [4] 5.64% | viability change, negative = cytotoxic [5] -4.83% | activity change, negative = cytotoxic [6] -2.15% | activity change, negative = cytotoxicity [7] -9.07% | activity change, negative = cytotoxicity [8] -6.67% | activity change, negative = cytotoxicity [9] 0.195% | activity change, negative = cytotoxicity [10] -2.37% | activity change, negative = cytotoxicity [11] -5.08% | activity change, negative = cytotoxic [12] -3.65% | activity change, negative = cytotoxicity [13] 3.98% | activity change, negative = cytotoxicity [14] -13.3% | activity change, negative = cytotoxicity [15] -6.44% | activity, negative = cytotoxicity [16] -12% | activity change, negative = cytotoxicity [17] -5.02% | activity change, negative = cytotoxicity [18] -9.72% | activity change, negative = cytotoxicity [19] 0.0684% | activity change, negative = cytotoxicity [20] -5.46%

O=[N+]([O-])c1ccccc1Cl
inactive: viability change, negative = cytotoxic [1] 8.25% | activity change, negative = cytotoxic [2] 2.12% | activity change, negative = cytotoxicity [3] -0.599% | activity change, negative = cytotoxicity [4] -9.84% | viability change, negative = cytotoxic [5] -0.37% | activity change, negative = cytotoxic [6] -2.24% | activity change, negative = cytotoxicity [7] 1.2% | activity change, negative = cytotoxicity [8] -0.0501% | activity change, negative = cytotoxicity [9] -1.42% | activity change, negative = cytotoxicity [10] 0.173% | activity change, negative = cytotoxicity [11] -13.8% | activity change, negative = cytotoxic [12] 7.54% | activity change, negative = cytotoxicity [13] 6.82% | activity change, negative = cytotoxicity [14] -8.1% | activity change, negative = cytotoxicity [15] -2.47% | activity, negative = cytotoxicity [16] -9.06% | activity change, negative = cytotoxicity [17] 2.12% | activity change, negative = cytotoxicity [18] -5.39% | activity change, negative = cytotoxicity [19] -0.336% | activity change, negative = cytotoxicity [20] 6.79%
